This is an account of results in paper PMC10805752.

The target of assay [1] is L1 cell adhesion molecule (L1CAM) (UniProt P32004). Description: co-IP; HEK293 cells overexpressing ADAMTS1, L1CAM and EGFR; NETN lysis buffer (150 mM NaCl, 20 mM Tris-base, 1 mM EDTA, 0.5% NP-40); 0.5 mg lysate with anti-EGFR, anti-L1CAM or IgG antibody overnight at 4 °C, protein A Sepharose beads 2 h, five washes; Western blot. In general terms: Immunoblotting shows a protein as a band on a membrane.

In assay [2] the target is epidermal growth factor receptor (EGFR) (UniProt P00533). Described as above.

No constants are given. Whether binding was seen depends on the method and setting. Binding seen in cells or lysates may run through a third protein. Some results given as binding are weak or reduced against the parent protein; the word gives no strength.

In the case of “epidermal growth factor receptor (EGFR) (from UniProt P00533 25-1210)”, the binding entry in assay [1] is on record as “binds”.
Regarding “L1 cell adhesion molecule (L1CAM) (from UniProt P32004 20-1257)”, the binding entry in assay [2] was “binds”.
